Reference: doi:10.1101/2025.11.10.687237
No constants are given. Whether binding was seen depends on the method and setting. Some results given as binding are weak or reduced against the parent protein; the word gives no strength.

Biological target: T1, Slx5 (SUMO-targeted ubiquitin ligase) (budding yeast) (UniProt P32828)
T1 sequence: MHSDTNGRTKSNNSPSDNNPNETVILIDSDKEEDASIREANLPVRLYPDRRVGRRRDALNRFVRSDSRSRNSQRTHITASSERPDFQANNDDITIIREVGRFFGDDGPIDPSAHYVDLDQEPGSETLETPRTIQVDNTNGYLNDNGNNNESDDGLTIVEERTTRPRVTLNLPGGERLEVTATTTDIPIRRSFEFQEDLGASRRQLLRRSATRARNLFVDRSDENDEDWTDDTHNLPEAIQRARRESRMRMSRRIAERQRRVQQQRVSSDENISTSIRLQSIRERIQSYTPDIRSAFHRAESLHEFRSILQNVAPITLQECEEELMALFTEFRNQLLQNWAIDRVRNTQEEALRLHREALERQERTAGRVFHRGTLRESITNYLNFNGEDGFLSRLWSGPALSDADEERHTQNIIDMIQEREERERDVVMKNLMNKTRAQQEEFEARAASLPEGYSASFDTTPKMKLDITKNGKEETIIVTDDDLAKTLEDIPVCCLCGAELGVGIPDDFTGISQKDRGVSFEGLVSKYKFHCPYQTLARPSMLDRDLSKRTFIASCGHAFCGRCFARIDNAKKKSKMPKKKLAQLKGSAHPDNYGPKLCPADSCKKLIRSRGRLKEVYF
Test: two-hybrid

B1: Cin8 (yeast kinesin-5) (protein, UniProt P27895 1-1000)
chain: MPAENQNTGQDRSSNSISKNGNSQVGCHTVPNEELNITVAVRCRGRNEREISMKSSVVVNVPDITGSKEISINTTGDTGITAQMNAKRYTVDKVFGPGASQDLIFDEVAGPLFQDFIKGYNCTVLVYGMTSTGKTYTMTGDEKLYNGELSDAAGIIPRVLLKLFDTLELQQNDYVVKCSFIELYNEELKDLLDSNSNGSSNTGFDGQFMKKLRIFDSSTANNTTSNSASSSRSNSRNSSPRSLNDLTPKAALLRKRLRTKSLPNTIKQQYQQQQAVNSRNNSSSNSGSTTNNASSNTNTNNGQRSSMAPNDQTNGIYIQNLQEFHITNAMEGLNLLQKGLKHRQVASTKMNDFSSRSHTIFTITLYKKHQDELFRISKMNLVDLAGSENINRSGALNQRAKEAGSINQSLLTLGRVINALVDKSGHIPFRESKLTRLLQDSLGGNTKTALIATISPAKVTSEETCSTLEYASKAKNIKNKPQLGSFIMKDILVKNITMELAKIKSDLLSTKSKEGIYMSQDHYKNLNSDLESYKNEVQECKREIESLTSKNALLVKDKLKSKETIQSQNCQIESLKTTIDHLRAQLDKQHKTEIEISDFNNKLQKLTEVMQMALHDYKKRELDLNQKFEMHITKEIKKLKSTLFLQLNTMQQESILQETNIQPNLDMIKNEVLTLMRTMQEKAELMYKDCVKKILNESPKFFNVVIEKIDIIRVDFQKFYKNIAENLSDISEENNNMKQYLKNHFFKNNHQELLNRHVDSTYENIEKRTNEFVENFKKVLNDHLDENKKLIMQNLTTATSAVIDQEMDLFEPKRVKWENSFDLINDCDSMNNEFYNSMAATLSQIKSTVDTSSNSMNESISVMKGQVEESENAISLLKNNTKFNDQFEQLINKHNMLKDNIKNSITSTHSHITNVDDIYNTIENIMKNYGNKENATKDEMIENILKEIPNLSKKMPLRLSNINSNSVQSVISPKKHAIEDENKSSENVDNEGSRKMLKIE
  binding: binds
